US8039430B2 (University of Wollongong, priority 2005, dated 2011)

What was measured:
[1] = solution-phase peptide synthesis; details: coupling step
[2] = general procedure: solution-phase peptide synthesis; details: late stage modification step

Substance | step yield [1] | step yield [2] | further results
Benzyl(2S,5R,8R,11S)-2-allyl-11-(4-allyloxybenzyl)-3,6,9,12-tetraaza-8-(4-[tert-butoxycarboxamido]butyl)-5-([{2,2,5,7,8-pentamethyl-3,4-dihydro-2H-6-chromenylsulfonamido}guanidino]propyl)-4,7,10,13-tetraoxotetradecanoate | 85% |  | 
Benzyl(2S,5R,8R,11S)-2-allyl-11-(4-[9-anthracenyl]benzyl)-3,6,9,12-tetraaza-8-(4-[tert-butoxycarboxamido]butyl)-5-([{2,2,5,7,8-pentamethyl-3,4-dihydro-2H-6-chromenylsulfonyl}guanidino]propyl)-4,7,10,13-tetraoxotetradecanoate | 36% |  | 
Benzyl(2S,5R,8R,11S)-2-allyl-8-(4-aminobutyl)-11-(4-[9-anthracenyl]benzyl)-3,6,9,12-tetraaza-5-(3-guanidinopropyl)-4,7,10,13-tetraoxotetradecanoate |  | 88% | 
Benzyl(2S,5R,8R,11S)-2-allyl-11-(4-allyloxybenzyl)-8-(4-aminobutyl)-3,6,9,12-tetraaza-5-(3-[guanidino]propyl)-4,7,10,13-tetraoxotetradecanoate hydrochloride |  |  | step yield ([2]; hydrochloride): 82%
Benzyl(2S,5R,8R,11S)-2-allyl-8-(4-aminobutyl)-3,6,9,12-tetraaza-5-(3-guanidinopropyl)-4,7,10,13-tetraoxo-11-(4-[9-phenanthrenyl]benzyl)tetradecanoate |  | 79% | 
